{"source": "PubChem BioAssay AID1224830 (NIAID, 2016)", "aim": "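Regulators of TLR4 signalling towards TNF-alpha in macrophage-like cells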 (primary screen)", "cells": "human THP-1 monocytic leukaemia cells, TNF dual-luciferase reporter clone, PMA-differentiated to macrophage-like cells", "reagent": "siRNA pool against human genes, 50 nM", "time to read-out": "LPS for 4 h, given about 3 days after siRNA transfection", "treatment": "bacterial LPS (TLR4 ligand), 10 ng/ml", "read-out": "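TNF firefly reporter luminescence divided by renilla, normalised to the plate median, then turned into a robust z-score for each replicate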", "scale": "TNF reporter robust z-score: higher = stronger TNF reporter response to LPS", "call rule": "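a well is active when its z-score exceeds 2.8 or falls below -1.5; control wells carry no call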", "note": "Here is a random part of about 18,000 reagents tested. About 2,900 of them (16%) count as active. 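Calls are made per well; low scores hint the gene aids the LPS response, high scores that it dampens it.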 A number with no mark means an inactive call. Repeated entries: four replicate wells of each siRNA pool. Reagent sequences are not shown."}
{"gene": "SPAG4 (sperm associated antigen 4)", "TNF reporter robust z-score": -1.01}
{"gene": "SPAG4 (sperm associated antigen 4)", "TNF reporter robust z-score": -0.93}
{"gene": "SPAG4 (sperm associated antigen 4)", "TNF reporter robust z-score": -0.47}
{"gene": "SPAG4 (sperm associated antigen 4)", "TNF reporter robust z-score": -1.09}
{"gene": "PARP1 (poly(ADP-ribose) polymerase 1)", "TNF reporter robust z-score": -0.57}
{"gene": "PARP1 (poly(ADP-ribose) polymerase 1)", "TNF reporter robust z-score": -0.42}
{"gene": "PARP1 (poly(ADP-ribose) polymerase 1)", "TNF reporter robust z-score": -0.67}
{"gene": "PARP1 (poly(ADP-ribose) polymerase 1)", "TNF reporter robust z-score": -0.52}
{"gene": "PHPT1 (phosphohistidine phosphatase 1)", "TNF reporter robust z-score": 0.53}
{"gene": "PHPT1 (phosphohistidine phosphatase 1)", "TNF reporter robust z-score": 0.15}
{"gene": "PHPT1 (phosphohistidine phosphatase 1)", "TNF reporter robust z-score": -0.01}
{"gene": "PHPT1 (phosphohistidine phosphatase 1)", "TNF reporter robust z-score": -0.31}
{"gene": "P4HTM (prolyl 4-hydroxylase, transmembrane)", "TNF reporter robust z-score": 1.45}
{"gene": "P4HTM (prolyl 4-hydroxylase, transmembrane)", "TNF reporter robust z-score": 1.21}
{"gene": "P4HTM (prolyl 4-hydroxylase, transmembrane)", "TNF reporter robust z-score": 2.5}
{"gene": "P4HTM (prolyl 4-hydroxylase, transmembrane)", "TNF reporter robust z-score": "4.74 (active)"}
{"gene": "CYB561 (cytochrome b561)", "TNF reporter robust z-score": -1.14}
{"gene": "CYB561 (cytochrome b561)", "TNF reporter robust z-score": -0.14}
{"gene": "CYB561 (cytochrome b561)", "TNF reporter robust z-score": 0.05}
{"gene": "CYB561 (cytochrome b561)", "TNF reporter robust z-score": -0.78}
{"gene": "SLC27A3", "TNF reporter robust z-score": 1.14}
{"gene": "SLC27A3", "TNF reporter robust z-score": 1.32}
{"gene": "SLC27A3", "TNF reporter robust z-score": -0.38}
{"gene": "SLC27A3", "TNF reporter robust z-score": 1.06}
{"gene": "DBH (dopamine beta-hydroxylase)", "TNF reporter robust z-score": 0.16}
{"gene": "DBH (dopamine beta-hydroxylase)", "TNF reporter robust z-score": 2.08}
{"gene": "DBH (dopamine beta-hydroxylase)", "TNF reporter robust z-score": 1.88}
{"gene": "DBH (dopamine beta-hydroxylase)", "TNF reporter robust z-score": "5.34 (active)"}
{"gene": "SLC38A10", "TNF reporter robust z-score": 0.31}
{"gene": "SLC38A10", "TNF reporter robust z-score": 0.76}
{"gene": "SLC38A10", "TNF reporter robust z-score": 0.43}
{"gene": "SLC38A10", "TNF reporter robust z-score": 0.95}
{"gene": "CCDC82 (coiled-coil domain containing 82)", "TNF reporter robust z-score": -1.04}
{"gene": "CCDC82 (coiled-coil domain containing 82)", "TNF reporter robust z-score": -1.31}
{"gene": "CCDC82 (coiled-coil domain containing 82)", "TNF reporter robust z-score": -0.23}
{"gene": "CCDC82 (coiled-coil domain containing 82)", "TNF reporter robust z-score": -0.58}
{"gene": "SYT4 (synaptotagmin 4)", "TNF reporter robust z-score": -0.35}
{"gene": "SYT4 (synaptotagmin 4)", "TNF reporter robust z-score": 0.13}
{"gene": "SYT4 (synaptotagmin 4)", "TNF reporter robust z-score": -0.21}
{"gene": "SYT4 (synaptotagmin 4)", "TNF reporter robust z-score": 0.85}
{"gene": "DUOX1 (dual oxidase 1)", "TNF reporter robust z-score": -0.19}
{"gene": "DUOX1 (dual oxidase 1)", "TNF reporter robust z-score": 0.59}
{"gene": "DUOX1 (dual oxidase 1)", "TNF reporter robust z-score": 0.66}
{"gene": "DUOX1 (dual oxidase 1)", "TNF reporter robust z-score": 0}
{"gene": "ZNF134 (zinc finger protein 134)", "TNF reporter robust z-score": -1.13}
{"gene": "ZNF134 (zinc finger protein 134)", "TNF reporter robust z-score": 0.43}
{"gene": "ZNF134 (zinc finger protein 134)", "TNF reporter robust z-score": 0.2}
{"gene": "ZNF134 (zinc finger protein 134)", "TNF reporter robust z-score": -0.56}

Targets listed so far whose target name starts with Z or z (4):
{"gene": "ZNF134 (zinc finger protein 134)", "TNF reporter robust z-score": -1.13}
{"gene": "ZNF134 (zinc finger protein 134)", "TNF reporter robust z-score": 0.43}
{"gene": "ZNF134 (zinc finger protein 134)", "TNF reporter robust z-score": 0.2}
{"gene": "ZNF134 (zinc finger protein 134)", "TNF reporter robust z-score": -0.56}
